Assay results: paper PMC10099996 (Chembiochem, 2022)
≈ marks a conversion by molar mass, not a printed value.

Test system: B. subtilis 168
Experiment: MIC determination
Assay type: cell-based
Conditions: Table 1; lysogeny broth (LB) supplemented with 0.3 mM ZnSO4; 37 °C, 18 h; visual inspection; median of a minimum of triplicates

CN[C@H](CC(C)C)C(=O)N[C@H]1C(=O)N[C@@H](CC(N)=O)C(=O)N[C@H]2C(=O)N[C@H]3C(=O)N[C@H](C(=O)N[C@H](C(=O)O)c4cc(O)cc(O)c4-c4cc3ccc4O)[C@H](O)c3ccc(c(Cl)c3)Oc3cc2cc(c3O[C@@H]2O[C@H](CO)[C@@H](O)[C@H](O)[C@H]2O[C@H]2C[C@](C)(N)[C@H](O)[C@H](C)O2)Oc2ccc(cc2Cl)[C@H]1O [Vancomycin]
MIC B. subtilis 168: 0.25 µg/mL (≈ 0.173 µM)
